Where a name gives a salt, the structure may show the parent alone. ± gives the standard deviation of the averaged measurements. This is one part of the list. The data scatter; read single values as rough.
Columns and labels:
hAMSC donor 1 [1] = experiment: Hoechst total cell count ratio vs vehicle control; higher = more cells (less toxicity)
hAMSC donor 2 [2] = experiment: as above
hAMSC donor 1 [3] = experiment: transgenic luciferase activity (RLU/mg protein) fold change vs vehicle control (ratio); higher = more transgene expression
hAMSC donor 2 [4] = experiment: as above
hAMSC donor 1 [5] = experiment: transfection efficiency (EGFP+ cells / Hoechst count) fold change vs vehicle control (ratio); hAMSC are human adipose-derived mesenchymal stem cells given an EGFP-luciferase plasmid by lipofection; higher = enhanced transfection
hAMSC donor 2 [6] = experiment: as above
[7] = priming compound concentration 0.2 µM
[8] = priming compound concentration 1.7 µM
[9] = priming compound concentration 13 µM

SMILES | Hoechst total cell count ratio (hAMSC donor 1 [1]; [7]) | Hoechst total cell count ratio (hAMSC donor 1 [1]; [8]) | Hoechst total cell count ratio (hAMSC donor 1 [1]; [9]) | Hoechst total cell count ratio (hAMSC donor 2 [2]; [7]) | Hoechst total cell count ratio (hAMSC donor 2 [2]; [8]) | Hoechst total cell count ratio (hAMSC donor 2 [2]; [9]) | transgenic luciferase activity (hAMSC donor 1 [3]; [7]) | transgenic luciferase activity (hAMSC donor 1 [3]; [8]) | transgenic luciferase activity (hAMSC donor 1 [3]; [9]) | transgenic luciferase activity (hAMSC donor 2 [4]; [7]) | transgenic luciferase activity (hAMSC donor 2 [4]; [8]) | transgenic luciferase activity (hAMSC donor 2 [4]; [9]) | transfection efficiency (hAMSC donor 1 [5]; [7]) | transfection efficiency (hAMSC donor 1 [5]; [8]) | transfection efficiency (hAMSC donor 1 [5]; [9]) | transfection efficiency (hAMSC donor 2 [6]; [7]) | transfection efficiency (hAMSC donor 2 [6]; [8]) | transfection efficiency (hAMSC donor 2 [6]; [9])
CN1CCN(C2=Nc3cc(F)ccc3Cc3ccccc32)CC1 [Fluperlapine] | 0.925 ± 0.1 | 1.32 ± 0.17 | 1.17 ± 0.082 | 1.12 ± 0.27 | 1.06 ± 0.042 | 1.02 ± 0.12 | 0.882 ± 0.19 | 0.951 ± 0.38 | 0.385 ± 0.37 | 0.472 ± 0.33 | 0.937 ± 0.26 | 1.15 ± 0.3 | 1.16 ± 0.71 | 0.935 ± 0.18 | 0.891 ± 0.084 | 1.08 ± 0.29 | 0.843 ± 0.13 | 0.921 ± 0.14
CCOc1ccc2ccccc2c1C(=O)N[C@@H]1C(=O)N2[C@@H]1SC(C)(C)[C@@H]2C(=O)O [Nafcillin sodium] | 1.17 ± 0.016 | 1.27 ± 0.061 | 1.2 ± 0.092 | 1.22 ± 0.12 | 1.35 ± 0.14 | 1.22 ± 0.11 | 0.866 ± 0.024 | 0.756 ± 0.31 | 1.15 ± 0.095 | 0.829 ± 0.24 | 0.858 ± 0.017 | 1.24 ± 0.23 | 0.953 ± 0.47 | 0.883 ± 0.42 | 1.43 ± 0.42 | 0.868 ± 0.099 | 0.886 ± 0.14 | 1.03 ± 0.1
Cc1[nH]cnc1CN1CCc2c(c3ccccc3n2C)C1=O [Alosetron monohydrochloride] | 1.15 ± 0.041 | 1.21 ± 0.051 | 1.1 ± 0.023 | 1.11 ± 0.22 | 0.971 ± 0.023 | 1.01 ± 0.043 | 0.663 ± 0.45 | 0.752 ± 0.12 | 0.225 ± 0.15 | 0.594 ± 0.14 | 1.29 ± 0.14 | 1.1 ± 0.089 | 1.27 ± 0.21 | 0.89 ± 0.3 | 1.24 ± 0.16 | 1.01 ± 0.22 | 1.11 ± 0.045 | 0.991 ± 0.2
COc1ccc(/C=C/C(=O)Nc2ccccc2C(=O)O)cc1OC [Tranilast] | 1.18 ± 0.067 | 1.12 ± 0.05 | 1.1 ± 0.18 | 0.954 ± 0.038 | 1.19 ± 0.047 | 1.04 ± 0.16 | 0.643 ± 0.31 | 1.02 ± 0.2 | 3.66 ± 0.39 | 0.877 ± 0.12 | 0.831 ± 0.091 | 2.25 ± 0.59 | 1.28 ± 0.37 | 1.22 ± 0.59 | 1.25 ± 0.12 | 1.1 ± 0.16 | 0.865 ± 0.064 | 1.76 ± 0.13
Nc1ccn([C@H]2CC[C@@H](CO)O2)c(=O)n1 [Zalcitabine] | 1.15 ± 0.053 | 1.07 ± 0.2 | 1.11 ± 0.13 | 1.23 ± 0.36 | 0.905 ± 0.1 | 1.16 ± 0.12 | 0.423 ± 0.13 | 0.677 ± 0.11 | 0.835 ± 0.29 | 0.813 ± 0.19 | 1.06 ± 0.041 | 1.81 ± 0.69 | 1.27 ± 0.23 | 1.02 ± 0.46 | 0.991 ± 0.28 | 0.951 ± 0.18 | 1.52 ± 0.1 | 1.49 ± 0.076
COc1cccc2c1C(=O)c1c(O)c3c(c(O)c1C2=O)C[C@@](O)(C(=O)CO)C[C@@H]3O[C@H]1C[C@H](N)[C@@H](O)[C@H](C)O1 [Epirubicin hydrochloride] | 0.674 ± 0.047 | 0.21 ± 0.042 | 0.107 ± 0.016 | 0.562 ± 0.058 | 0.139 ± 0.057 | 0.079 ± 0.011 | 1.38 ± 0.48 | 1.01 ± 0.58 | 0.25 ± 0.23 | 1.28 ± 0.3 | 1.98 ± 1.3 | 0.00034 ± 0.00038 | 1.69 ± 0.41 | 3 ± 0.55 | 0.257 ± 0.22 | 1.49 ± 0.25 | 2.69 ± 0.1 | 0.245 ± 0.11
Nc1c2c(nc3c1CCC3)CCCC2 [Ipidacrine] | 1.03 ± 0.15 | 1.25 ± 0.17 | 1.01 ± 0.2 | 1.46 ± 0.54 | 1.03 ± 0.021 | 1.05 ± 0.077 | 0.899 ± 0.41 | 1.04 ± 0.23 | 0.227 ± 0.1 | 0.612 ± 0.15 | 0.603 ± 0.16 | 1.16 ± 1.1 | 1.53 ± 0.37 | 0.878 ± 0.3 | 1.02 ± 0.15 | 0.766 ± 0.12 | 1.16 ± 0.14 | 1.1 ± 0.42
CCN(CC)CC1CCCCN1CC(=O)N1c2ccccc2C(=O)Nc2cccnc21 (stereo unspecified) [Otenzepad] | 1.25 ± 0.26 | 1.39 ± 0.14 | 1.11 ± 0.092 | 1.44 ± 0.34 | 0.756 ± 0.01 | 1.04 ± 0.11 | 0.892 ± 0.44 | 1.06 ± 0.26 | 0.183 ± 0.13 | 0.414 ± 0.31 | 0.997 ± 0.055 | 1.02 ± 0.21 | 0.935 ± 0.13 | 0.975 ± 0.17 | 1.03 ± 0.16 | 0.895 ± 0.11 | 1.06 ± 0.076 | 0.913 ± 0.044
CN(C)CCOC(c1ccccc1)c1ccccc1 [Diphenhydramine hydrochloride] | 1.07 ± 0.038 | 1.27 ± 0.07 | 1.19 ± 0.069 | 1.11 ± 0.1 | 0.81 ± 0.062 | 1.33 ± 0.16 | 0.606 ± 0.18 | 0.807 ± 0.12 | 0.908 ± 0.19 | 0.715 ± 0.2 | 2.44 ± 1.5 | 0.902 ± 0.081 | 1.21 ± 0.27 | 0.965 ± 0.28 | 0.833 ± 0.18 | 1.22 ± 0.15 | 1.57 ± 0.14 | 1.1 ± 0.18
COc1ccccc1N1CCN(CCCNc2cc(=O)n(C)c(=O)n2C)CC1 [Urapidil hydrochloride] | 1.18 ± 0.046 | 1.28 ± 0.096 | 1.2 ± 0.21 | 1.17 ± 0.19 | 1.07 ± 0.14 | 1.02 ± 0.057 | 0.799 ± 0.17 | 0.989 ± 0.066 | 0.393 ± 0.12 | 0.981 ± 0.14 | 0.521 ± 0.057 | 0.736 ± 0.033 | 0.816 ± 0.18 | 1.04 ± 0.11 | 1.31 ± 0.17 | 1.01 ± 0.12 | 0.949 ± 0.044 | 1.08 ± 0.031
CC(Oc1c(Cl)cccc1Cl)C1=NCCN1 (stereo unspecified) [Lofexidine hydrochloride] | 1.23 ± 0.046 | 1.16 ± 0.26 | 1.16 ± 0.075 | 0.909 ± 0.16 | 0.913 ± 0.095 | 1.71 ± 0.082 | 0.726 ± 0.36 | 0.626 ± 0.15 | 1.23 ± 0.27 | 0.867 ± 0.35 | 0.991 ± 0.47 | 0.964 ± 0.11 | 1.55 ± 0.67 | 1.39 ± 0.56 | 0.866 ± 0.3 | 1.39 ± 0.34 | 1.29 ± 0.12 | 0.854 ± 0.015
C/C(=C\C(=O)OCCCCCCCCC(=O)O)C[C@@H]1OC[C@H](C[C@@H]2O[C@H]2[C@@H](C)[C@H](C)O)[C@@H](O)[C@H]1O [Mupirocin] | 1.17 ± 0.091 | 1.17 ± 0.038 | 1.17 ± 0.062 | 0.858 ± 0.25 | 0.948 ± 0.16 | 1.19 ± 0.36 | 0.944 ± 0.45 | 0.469 ± 0.12 | 0.803 ± 0.26 | 1.33 ± 0.61 | 1.04 ± 0.37 | 1.86 ± 0.15 | 1.35 ± 0.28 | 1.19 ± 0.48 | 2.29 ± 0.89 | 1.43 ± 0.43 | 1.29 ± 0.28 | 1.27 ± 0.48

Looked up by compound from the entries so far (2):
SMILES | Hoechst total cell count ratio (hAMSC donor 1 [1]; [7]) | Hoechst total cell count ratio (hAMSC donor 1 [1]; [8]) | Hoechst total cell count ratio (hAMSC donor 1 [1]; [9]) | Hoechst total cell count ratio (hAMSC donor 2 [2]; [7]) | Hoechst total cell count ratio (hAMSC donor 2 [2]; [8]) | Hoechst total cell count ratio (hAMSC donor 2 [2]; [9]) | transgenic luciferase activity (hAMSC donor 1 [3]; [7]) | transgenic luciferase activity (hAMSC donor 1 [3]; [8]) | transgenic luciferase activity (hAMSC donor 1 [3]; [9]) | transgenic luciferase activity (hAMSC donor 2 [4]; [7]) | transgenic luciferase activity (hAMSC donor 2 [4]; [8]) | transgenic luciferase activity (hAMSC donor 2 [4]; [9]) | transfection efficiency (hAMSC donor 1 [5]; [7]) | transfection efficiency (hAMSC donor 1 [5]; [8]) | transfection efficiency (hAMSC donor 1 [5]; [9]) | transfection efficiency (hAMSC donor 2 [6]; [7]) | transfection efficiency (hAMSC donor 2 [6]; [8]) | transfection efficiency (hAMSC donor 2 [6]; [9])
Nc1ccn([C@H]2CC[C@@H](CO)O2)c(=O)n1 [Zalcitabine] | 1.15 ± 0.053 | 1.07 ± 0.2 | 1.11 ± 0.13 | 1.23 ± 0.36 | 0.905 ± 0.1 | 1.16 ± 0.12 | 0.423 ± 0.13 | 0.677 ± 0.11 | 0.835 ± 0.29 | 0.813 ± 0.19 | 1.06 ± 0.041 | 1.81 ± 0.69 | 1.27 ± 0.23 | 1.02 ± 0.46 | 0.991 ± 0.28 | 0.951 ± 0.18 | 1.52 ± 0.1 | 1.49 ± 0.076
C/C(=C\C(=O)OCCCCCCCCC(=O)O)C[C@@H]1OC[C@H](C[C@@H]2O[C@H]2[C@@H](C)[C@H](C)O)[C@@H](O)[C@H]1O [Mupirocin] | 1.17 ± 0.091 | 1.17 ± 0.038 | 1.17 ± 0.062 | 0.858 ± 0.25 | 0.948 ± 0.16 | 1.19 ± 0.36 | 0.944 ± 0.45 | 0.469 ± 0.12 | 0.803 ± 0.26 | 1.33 ± 0.61 | 1.04 ± 0.37 | 1.86 ± 0.15 | 1.35 ± 0.28 | 1.19 ± 0.48 | 2.29 ± 0.89 | 1.43 ± 0.43 | 1.29 ± 0.28 | 1.27 ± 0.48
